{"source": "patent US8647887B2", "about": "“Measuring G protein coupled receptor activation” (Commonwealth Scientific and Industrial Research Organisation, priority 2009, dated 2014)", "system": "ODR-10 receptor (OGOR)", "experiment": "cell-free BRET^2 assay with dual-labelled ODR-10 (OGOR) in yeast membrane preparations", "type": "biochemical, C. elegans", "conditions": "diacetyl 1 μM", "experimental": "Cells were harvested by centrifugation at 1500×g (4° C.) for 5 minutes, washed in water and resuspended in 4 mL of Dulbecco's phosphate buffered saline (D-PBS) or 1×PBS, containing 1000 mg/L glucose, 36 mg/L sodium pyruvate, calcium and magnesium (Invitrogen). The cells were lysed by French press (˜18000 psi) and the soluble protein fractions were isolated by centrifugation at 9300×g (4° C.) for 15 minutes. Following this the soluble protein fraction was transferred to 13.15 mL polycarbonate thick wall centrifuge tubes and ultracentrifuged at 40,000 rpm (Beckman Coulter L-80 ultra-centrifuge) for 1 hour at 4° C. […]\nSimultaneous dual emission RET measurements were carried out with a POLARstar OPTIMA microplate reader (BMG LabTech). […]\nTo assess the relative concentrations of BRET^2 tagged receptor samples the fluorescence intensity of the sample was determined from spectral scans and the sample amount normalized by the OGOR fluorescence intensity. To convert GFP^2 intensity into concentration purified GFP^2 protein was assayed at different concentrations to produce a calibration graph relating concentration to fluorescence intensity. […] Rearranging the line of best fit equation (y=271x+233.31) results in conversion of fluorescence intensity to concentration. […]\nA sigmoidal dose response curve was fitted, and EC50 calculated, by non-linear regression analysis using GraphPad Prism for Windows XP.", "data": [{"compound": "CC(=O)C(C)=O", "note": "[diacetyl]", "values": [{"measurement": "donor-acceptor distance upon addition of ligand", "setting": "6.8 nm before addition", "result": 7.6, "unit": "nm"}, {"measurement": "measured transfer efficiency for OGOR upon addition of ligand", "setting": "64.3% before addition", "result": 47, "unit": "%"}]}]}
